Experimental data: patent US20050176775A1, “Substituted pyridinones” (priority 2003, published 2005)
Counter-ions that a name gives are not always drawn. Some results were stated once for a whole list of compounds, not compound by compound.

By UniProt entry, the sequences of proteins in these tests, tags left out.
UniProt Q16539, whole entry: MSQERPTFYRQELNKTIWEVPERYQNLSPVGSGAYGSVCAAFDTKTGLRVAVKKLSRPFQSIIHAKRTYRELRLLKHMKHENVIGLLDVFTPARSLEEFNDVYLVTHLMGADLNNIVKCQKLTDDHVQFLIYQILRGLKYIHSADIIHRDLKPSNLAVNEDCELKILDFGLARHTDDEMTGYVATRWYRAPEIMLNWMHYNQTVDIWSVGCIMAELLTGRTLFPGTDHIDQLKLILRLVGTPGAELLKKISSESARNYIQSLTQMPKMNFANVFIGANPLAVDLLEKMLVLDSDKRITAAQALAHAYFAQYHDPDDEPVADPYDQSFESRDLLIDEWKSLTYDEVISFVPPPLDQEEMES

What follows are molecules tested against T1, human p38 kinase alpha (Homo sapiens, UniProt Q16539) (assay: p38 alpha kinase assay (PHAS-I / 32P-ATP format or EGFRP / 33P-ATP format)). Conditions: inhibition of activated human p38 kinase alpha; the text does not say which of the two in vitro formats was used.
T1 construct: made in house; host or cells: E. coli DH10B
Assay type: biochemical
Protocol: The ability of compounds to inhibit human p38 kinase alpha was evaluated using two in vitro assay methods. In the first method, activated human p38 kinase alpha phosphorylates a biotinylated substrate, PHAS-I (phosphorylated heat and acid stable protein-insulin inducible), in the presence of gamma ^32P-ATP (^32P-ATP). PHAS-I was biotinylated prior to the assay and provides a means of capturing the substrate, which is phosphorylated during the assay. p38 Kinase was activated by MKK6. Compounds were tested in 10 fold serial dilutions over the range of 100 μM to 0.001 μM using 1% DMSO. Each concentration of inhibitor was tested in triplicate.
All reactions were carried out in 96 well polypropylene plates. Each reaction well contained 25 mM HEPES pH 7.5, 10 mM magnesium acetate and 50 μM unlabeled ATP. […] Activated human p38 kinase alpha was used at 1 μg per 50 μl reaction volume representing a final concentration of 0.3 μM. Gamma ^32P-ATP was used to follow the phosphorylation of PHAS-I. ^32P-ATP has a specific activity of 3000 Ci/mmol and was used at 1.2 μCi per 50 μl reaction volume. The reaction proceeded either for one hour or overnight at 30° C.
Following incubation, 20 μl of reaction mixture was transferred to a high capacity streptavidin coated filter plate (SAM-streptavidin-matrix, Promega) prewetted with phosphate buffered saline. […] Filter plates were air-dried and 20 μl of scintillant was added. The plates were sealed and counted.
Compounds were tested in 10 fold serial dilutions over the range of 100 μM to 0.001 μM in 1% DMSO. Each concentration of inhibitor was tested in triplicate. […] Reactions were initiated by addition of 0.09 μg of activated, purified human GST-p38 kinase alpha. […] Following incubation for 60 minutes at room temperature, the reaction was stopped by addition of 150 μl of AG 1×8 resin in 900 mM sodium formate buffer, pH 3.0 (1 volume resin to 2 volumes buffer). The mixture was mixed three times with pipetting and the resin was allowed to settle. A total of 50 μl of clarified solution head volume was transferred from the reaction wells to Microlite-2 plates. 150 μl of Microscint 40 was then added to each well of the Microlite plate, and the plate was sealed, mixed, and counted.
With `CC(=O)NCc1cccc(Cn2c(C)cc(OCc3ccc(F)cc3F)c(Br)c2=O)c1` [Example 170] the IC50 was < 1000 nM. In the case of `Cc1cnc(Cn2c(C)cc(OCc3ccc(F)cc3F)c(Br)c2=O)cn1` [Example 400, 3-bromo-4-[(2,4-difluorobenzyl)oxy]-6-methyl-1-[(5-methylpyrazin-2-yl)methyl]pyridin-2(1H)-one], the IC50 is reported as < 1000 nM. For `Cc1cc(OCc2ccc(F)cc2F)c(Br)c(=O)n1Cc1cccc(CNS(C)(=O)=O)c1` [Example 172], the IC50 was < 1000 nM. With `Cc1cc(OCc2ccc(F)cc2F)c(Cl)c(=O)n1-c1cc(CN)ccc1F` [Example 523, 1-[5-(aminomethyl)-2-fluorophenyl]-3-chloro-4-[(2,4-difluorobenzyl)oxy]-6-methylpyridin-2(1H)-one Hydrochloride] the IC50 was < 1000 nM. `Cc1cc(NCc2ccc(F)cc2F)c(Cl)c(=O)n1Cc1cccc(C#N)c1` [Example 504, 3-{[3-chloro-4-[(2,4-difluorobenzyl)amino]-6-methyl-2-oxopyridin-1(2H)-yl]methyl}benzonitrile] was tested, and the IC50 was < 1000 nM. For `Cc1cc(OCc2ccc(F)cc2F)c(Br)c(=O)n1-c1ccc(C(=O)NCCCN)cc1` [Example 235], the IC50 was < 1000 nM. In the case of `Cc1cc(OCc2ccc(F)cc2F)c(Br)c(=O)n1Cc1cccc(CNC(=O)CO)c1` [Example 173], the IC50 is reported as < 1000 nM. In the case of `Cc1cc(OCc2ccc(F)cc2F)c(Br)c(=O)n1Cc1ccc(CN(CCO)CCO)cc1` [Example 179], the IC50 is reported as < 1000 nM. In the case of `Cc1cc(OCc2ccc(F)cc2F)c(Cl)c(=O)n1-c1c(F)cc(F)cc1F` [Example 314, 3-chloro-4-[(2,4-difluorobenzyl)oxy]-6-methyl-1-(2,4,6-trifluorophenyl)pyridin-2(1H)-one], the IC50 is reported as < 1000 nM. In the case of `Cc1ccc(CO)cc1-n1c(C)cc(OCc2ccc(F)cc2F)c(Br)c1=O` [Example 481, 3-bromo-4-[(2,4-difluorobenzyl)oxy]-1-[5-(hydroxymethyl)-2-methylphenyl]-6-methylpyridin-2(1H)-one], the IC50 is reported as < 1000 nM. For `Cc1cc(OCc2ccc(F)cc2F)c(Br)c(=O)n1-c1ccc(C(N)=O)cc1Cl` [Example 589, 4-[3-bromo-4-[(2,4-difluorobenzyl)oxy]-6-methyl-2-oxopyridin-1(2H)-yl]-3-chlorobenzamide], the IC50 was < 1000 nM. `Cc1cc(OCc2ccc(F)cc2F)c(Br)c(=O)n1-c1ccc(C(=O)NO)cc1` [Example 236] was tested, and the IC50 was > 100000 nM. In the case of `CC(=O)Nc1ccc(Cn2c(C)cc(OCc3ccc(F)cc3F)c(Br)c2=O)cc1` [Example 613, N-(4-{[3-bromo-4-[(2,4-difluorobenzyl)oxy]-6-methyl-2-oxopyridin-1(2H)-yl]methyl}phenyl)acetamide], the IC50 is reported as < 1000 nM. With `COC(=O)NCc1cccc(Cn2c(C)cc(OCc3ccc(F)cc3F)c(Br)c2=O)c1` [Example 171] the IC50 was < 1000 nM. In the case of `COc1ccc(C(=O)N(C)C)cc1-n1c(C)cc(OCc2ccc(F)cc2F)c(Br)c1=O` [Example 522, 3-[3-bromo-4-[(2,4-difluorobenzyl)oxy]-6-methyl-2-oxopyridin-1(2H)-yl]-4-methoxy-N,N-dimethylbenzamide], the IC50 is reported as < 1000 nM. `O=c1c(Br)c(NCc2ccc(F)cc2C(F)(F)F)ccn1Cc1cccc(F)c1` [Example 497, 3-bromo-1-(3-fluorobenzyl)-4-{[4-fluoro-2-(trifluoromethyl)benzyl]amino}pyridin-2(1H)-one] was tested, and the IC50 was > 100000 nM. With `Cc1cc(OCc2ccc(F)cc2F)c(Br)c(=O)n1Cc1ccc(CN2CCOCC2)cc1` [Example 176] the IC50 was < 1000 nM. `CNC(=O)c1ccc(-n2c(C)cc(OCc3ccc(F)cc3F)c(Br)c2=O)cc1` [Example 237] was tested, and the IC50 was > 100000 nM. With `C=CCn1c(C)cc(OCc2ccc(F)cc2F)c(Br)c1=O` [Example 458, 1-allyl-3-bromo-4-[(2,4-difluorobenzyl)oxy]-6-methylpyridin-2(1H)-one] the IC50 was < 1000 nM. `Cc1cc(OCc2ccc(F)cc2F)c(Br)c(=O)n1-c1cccc(C(=O)NCCN(C)C)c1` [Example 285] was tested, and the IC50 was < 1000 nM. In the case of `COC(=O)c1ccc(-n2c(C)cc(OCc3ccc(F)cc3F)c(Br)c2=O)c(Cl)c1` [Example 494, Methyl 4-[3-bromo-4-[(2,4-difluorobenzyl)oxy]-6-methyl-2-oxopyridin-1(2H)-yl]-3-chlorobenzoate], the IC50 is reported as < 1000 nM. `COCCN(C)C(=O)c1ccc(Cn2c(C)cc(OCc3ccc(F)cc3F)c(Br)c2=O)cc1` [Example 231] was tested, and the IC50 was < 1000 nM. `O=Cc1cc(OCc2ccc(F)cc2F)c(Br)c(=O)n1-c1c(F)cccc1F` [Example 467, 5-bromo-4-[(2,4-difluorobenzyl)oxy]-1-(2,6-difluorophenyl)-6-oxo-1,6-dihydropyridine-2-carbaldehyde] was tested, and the IC50 was < 1000 nM. With `O=c1c(Cl)c(OCc2ccc(F)cc2F)cc(CO)n1-c1c(F)cccc1F` [Example 466, 3-chloro-4-[(2,4-difluorobenzyl)oxy]-1-(2,6-difluorophenyl)-6-(hydroxymethyl)pyridin-2(1H)-one] the IC50 was < 1000 nM. For `Cc1cc(OCc2ccc(F)cc2F)c(Br)c(=O)n1Cc1ccc(S(=O)(=O)N(C)C)cc1` [Example 629, 4-{[3-bromo-4-[(2,4-difluorobenzyl)oxy]-6-methyl-2-oxopyridin-1(2H)-yl]methyl}-N,N-dimethylbenzenesulfonamide], the IC50 was < 1000 nM. In the case of `Cc1cc(OCc2ccc(F)cc2F)c(Br)c(=O)n1-c1ccc(C(=O)NCCN)cc1` [Example 234], the IC50 is reported as < 1000 nM. In the case of `Cc1cc(OCc2ccc(F)cc2F)c(Br)c(=O)n1-c1ccccc1C(F)(F)F` [Example 557, 3-bromo-4-[(2,4-difluorobenzyl)oxy]-6-methyl-1-[2-(trifluoromethyl)phenyl]pyridin-2(1H)-one], the IC50 is reported as < 1000 nM.
